# The supplement of paper PMC8728848
# The other results are listed elsewhere or left out.
# B1: ERGIC1-EDTA (Homo sapiens), Q969X5 (protein)
# chain: MKFLVNVALVFMVVYISYIYAAAHMHHHHHHDYDIPTTENLYFQGSEVVNELYVDDPDKDSGGKIDVSLNISLPNLHCELVGLDIQDEMGRHEVGHIDNSMKIPLNNGAGCRFEGQFSINKVPGNFHVSTHSATAQPQNPDMTHVIHKLSFGDTLQVQNIHGAFNALGGADRLTSNPLASHDYILKIVPTVYEDKSGKQRYSYQYTVANKEYVAYSHTGRIIPAIWFRYDLSPITVKYTE
# Key:
# Assay in all cases: glycan array binding signal (z-score within array); higher = stronger binding
# Conditions in all cases: glycan notation: IUPAC condensed, linker removed
# [1] = molecular target: Gal(b1-4)GlcNAc(b1-3)Gal(b1-4)GlcNAc(b1-3)Gal(b1-4)GlcNAc(b1-3)Gal(b1-4)GlcNAc(b1-2)Man(a1-3)[Gal(b1-4)GlcNAc(b1-3)Gal(b1-4)GlcNAc(b1-3)Gal(b1-4)GlcNAc(b1-3)Gal(b1-4)GlcNAc(b1-2)Man(a1-6)]Man(b1-4)GlcNAc(b1-4)GlcNAc
# Summary of the method: (§1)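 Columns mapping to the same glycan were averaged after glycan names were converted to IUPAC-condensed notation. The data come from 3228 arrays in the Consortium for Functional Glycomics database, limited to those with an available protein sequence. Binding is reported as a within-array Z-score averaged across arrays of one protein sequence and across linkers.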
# [2] = molecular target: Gal(b1-4)GlcNAc(b1-3)Gal(b1-4)GlcNAc(b1-3)Gal(b1-4)GlcNAc(b1-3)Gal(b1-4)GlcNAc(b1-2)Man(a1-3)[Gal(b1-4)GlcNAc(b1-3)Gal(b1-4)GlcNAc(b1-3)Gal(b1-4)GlcNAc(b1-3)Gal(b1-4)GlcNAc(b1-2)Man(a1-6)]Man(b1-4)GlcNAc(b1-4)[Fuc(a1-6)]GlcNAc
# Summary of the method: as §1
# [3] = molecular target: Gal(b1-4)GlcNAc(b1-3)Gal(b1-4)GlcNAc(b1-3)Gal(b1-4)GlcNAc(b1-3)Gal(b1-4)GlcNAc(b1-2)[Gal(b1-4)GlcNAc(b1-3)Gal(b1-4)GlcNAc(b1-3)Gal(b1-4)GlcNAc(b1-3)Gal(b1-4)GlcNAc(b1-6)]Man(a1-6)[Gal(b1-4)GlcNAc(b1-3)Gal(b1-4)GlcNAc(b1-3)Gal(b1-4)GlcNAc(b1-3)Gal(b1-4)GlcNAc(b1-2)Man(a1-3)]Man(b1-4)GlcNAc(b1-4)[Fuc(a1-6)]GlcNAc
# Summary of the method: as §1
# [4] = molecular target: Gal(b1-4)GlcNAc(b1-3)Gal(b1-4)GlcNAc(b1-3)Gal(b1-4)GlcNAc(b1-3)Gal(b1-4)GlcNAc(b1-3)Gal(b1-4)GlcNAc(b1-2)Man(a1-3)[Gal(b1-4)GlcNAc(b1-3)Gal(b1-4)GlcNAc(b1-3)Gal(b1-4)GlcNAc(b1-3)Gal(b1-4)GlcNAc(b1-3)Gal(b1-4)GlcNAc(b1-2)Man(a1-6)]Man(b1-4)GlcNAc(b1-4)GlcNAc
# Summary of the method: as §1
# [5] = molecular target: Gal(b1-4)GlcNAc(b1-3)Gal(b1-4)GlcNAc(b1-3)Gal(b1-4)GlcNAc(b1-3)Gal(b1-4)GlcNAc(b1-3)Gal(b1-4)GlcNAc(b1-2)Man(a1-3)[Gal(b1-4)GlcNAc(b1-3)Gal(b1-4)GlcNAc(b1-3)Gal(b1-4)GlcNAc(b1-3)Gal(b1-4)GlcNAc(b1-3)Gal(b1-4)GlcNAc(b1-2)Man(a1-6)]Man(b1-4)GlcNAc(b1-4)[Fuc(a1-6)]GlcNAc
# Summary of the method: as §1
# [6] = molecular target: Gal(b1-4)GlcNAc(b1-3)Gal(b1-4)GlcNAc(b1-3)Gal(b1-4)GlcNAc(b1-3)Gal(b1-4)GlcNAc(b1-3)Gal(b1-4)GlcNAc(b1-2)[Gal(b1-4)GlcNAc(b1-3)Gal(b1-4)GlcNAc(b1-3)Gal(b1-4)GlcNAc(b1-3)Gal(b1-4)GlcNAc(b1-3)Gal(b1-4)GlcNAc(b1-6)]Man(a1-6)[Gal(b1-4)GlcNAc(b1-3)Gal(b1-4)GlcNAc(b1-3)Gal(b1-4)GlcNAc(b1-3)Gal(b1-4)GlcNAc(b1-3)Gal(b1-4)GlcNAc(b1-2)Man(a1-3)]Man(b1-4)GlcNAc(b1-4)[Fuc(a1-6)]GlcNAc
# Summary of the method: as §1
# [7] = molecular target: Gal(b1-4)GlcNAc(b1-3)Gal(b1-4)GlcNAc(b1-3)Gal(b1-4)GlcNAc(b1-3)Gal(b1-4)GlcNAc(b1-3)Gal(b1-4)GlcNAc(b1-3)Gal(b1-4)GlcNAc(b1-2)Man(a1-3)[Gal(b1-4)GlcNAc(b1-3)Gal(b1-4)GlcNAc(b1-3)Gal(b1-4)GlcNAc(b1-3)Gal(b1-4)GlcNAc(b1-3)Gal(b1-4)GlcNAc(b1-3)Gal(b1-4)GlcNAc(b1-2)Man(a1-6)]Man(b1-4)GlcNAc(b1-4)GlcNAc
# Summary of the method: as §1
# [8] = molecular target: Gal(b1-4)GlcNAc(b1-3)Gal(b1-4)GlcNAc(b1-3)GalNAc
# Summary of the method: as §1
# [9] = molecular target: Gal(b1-4)GlcNAc(b1-3)Gal(b1-4)GlcNAc(b1-3)[Gal(b1-4)GlcNAc(b1-3)Gal(b1-4)GlcNAc(b1-6)]GalNAc
# Summary of the method: as §1
# [10] = molecular target: Gal(b1-4)GlcNAc(b1-3)Gal(b1-4)GlcNAc(b1-6)[Gal(b1-3)]GalNAc
# Summary of the method: as §1
# [11] = molecular target: Gal(b1-4)GlcNAc(b1-3)Gal(b1-4)[Fuc(a1-3)]GlcNAc(b1-3)Gal(b1-4)[Fuc(a1-3)]GlcNAc
# Summary of the method: as §1
# [12] = molecular target: Gal(b1-4)GlcNAc(b1-3)GalNAc
# Summary of the method: as §1
# [13] = molecular target: Gal(b1-4)GlcNAc(b1-3)[Fuc(a1-3)GlcNAc(b1-6)]Gal(b1-4)Glc
# Summary of the method: as §1
# [14] = molecular target: Gal(b1-4)GlcNAc(b1-3)[Gal(b1-4)GlcNAc(b1-6)]Gal(b1-4)GlcNAc
# Summary of the method: as §1
# [15] = molecular target: Gal(b1-4)GlcNAc(b1-3)[GlcNAc(b1-6)]Gal(b1-4)GlcNAc
# Summary of the method: as §1
# [16] = molecular target: Gal(b1-4)GlcNAc(b1-6)Gal(b1-4)GlcNAc
# Summary of the method: as §1
# [17] = molecular target: Gal(b1-4)GlcNAc(b1-6)GalNAc
# Summary of the method: as §1
# [18] = molecular target: Gal(b1-4)GlcNAc(b1-6)[Gal(b1-3)]GalNAc
# Summary of the method: as §1
# [19] = molecular target: Gal(b1-4)GlcNAc(b1-6)[Gal(b1-4)GlcNAc(b1-3)]GalNAc
# Summary of the method: as §1
# [20] = molecular target: Gal(b1-4)GlcNAc6P
# Summary of the method: as §1
# [21] = molecular target: Gal(b1-6)Gal
# Summary of the method: as §1
# [22] = molecular target: Gal3S(b1-3)GalNAc
# Summary of the method: as §1
# [23] = molecular target: Gal3S(b1-3)GlcNAc
# Summary of the method: as §1
binder,measurement,setting,value
B1,glycan array binding signal (z-score),[1],-0.467
same,glycan array binding signal (z-score),[2],2.23
same,glycan array binding signal (z-score),[3],1.76
same,glycan array binding signal (z-score),[4],-0.16
same,glycan array binding signal (z-score),[5],0.448
same,glycan array binding signal (z-score),[6],1.58
same,glycan array binding signal (z-score),[7],-0.209
same,glycan array binding signal (z-score),[8],0.855
same,glycan array binding signal (z-score),[9],0.58
same,glycan array binding signal (z-score),[10],0.919
same,glycan array binding signal (z-score),[11],-0.36
same,glycan array binding signal (z-score),[12],-0.356
same,glycan array binding signal (z-score),[13],-1.15
same,glycan array binding signal (z-score),[14],-0.963
same,glycan array binding signal (z-score),[15],-0.834
same,glycan array binding signal (z-score),[16],0.003
same,glycan array binding signal (z-score),[17],0.257
same,glycan array binding signal (z-score),[18],-0.397
same,glycan array binding signal (z-score),[19],-0.361
same,glycan array binding signal (z-score),[20],0.119
same,glycan array binding signal (z-score),[21],-0.644
same,glycan array binding signal (z-score),[22],1.01
same,glycan array binding signal (z-score),[23],-0.221
